The list is a part of this screen's results and no random one: it gathers tests that were run many times, whatever their T/C, doses with no T/C, and many T/C values between a quarter and a half above the control. Further doses and runs are listed elsewhere. T/C: endpoint of the treated group in % of that of the vehicle group. Some doses have a count of surviving animals in place of a T/C: the source files T/C as zero there, which appears to mark a toxic dose or a test without result, not a measured value. Some survivor counts are full or nearly so, which does not show that the dose was tolerated: the source hardly ever lists a survival T/C far under the control, and the zero likely stands for such cases as well. Survivors were counted at the toxicity check, usually on the fifth day, unless a day is given; later deaths do not show. Schedules are NCI's codes, read here as Q, the interval in days (D) or hours (H), X, the number of doses. Some schedules carry Z or #; the key to these is not given. Some molecules as drawn cover several salts, stereoisomers or complexes of the source; a dose is that of the sample tested. For survival time, the PubChem record calls one and a half times the control and up active, and a quarter to a half above the control has no call in these data; cut-offs in other NCI protocols can differ. Some T/C values are followed by the survivors on the day toxicity was checked, most often the fifth; without a count, all were alive then. Some entries were tested several times; the values are given in rising order. Marks such as (2×) count equal records among those shown.
Test system: L1210 leukemia ip in BDF1 mice, survival T/C
Assay: NCI In Vivo Anticancer Drug Screen. Data for tumor model L1210 Leukemia (intraperitoneal) in B6D2F1 (BDF1) mice
Settings: T/C endpoint: mean survival time, higher T/C = longer survival

O=C(Nc1ccc(C2=NCCN2)cc1)c1ccc(C(=O)Nc2ccc(C3=NCCN3)cc2)c(Cl)c1
T/C (dose: 2.0 mg/kg/injection, schedule: Q01DX010 (ip), vehicle: other): 134 % of control
T/C (dose: 2.0 mg/kg/injection, schedule: Q01DX010 (ip), vehicle: saline): 103, 112, 117, 124 % of control
T/C (dose: 4.0 mg/kg/injection, schedule: Q01DX010 (ip), vehicle: other): 143 % of control
T/C (dose: 4.0 mg/kg/injection, schedule: Q01DX010 (ip), vehicle: saline): 120, 121, 122, 123 % of control
T/C (dose: 4.0 mg/kg/injection, schedule: Q01DX Z (ip), vehicle: saline): 125 % of control
T/C (dose: 6.25 mg/kg/injection, schedule: Q01DX009 (ip), vehicle: saline with Tween-80): 133 % of control
T/C (dose: 6.3 mg/kg/injection, schedule: Q01DX Z (ip), vehicle: methylcellulose (MC)): 139 and 145 % of control [5 of 6 alive]
T/C (dose: 6.7 mg/kg/injection, schedule: Q01DX010 (ip), vehicle: carboxymethylcellulose (CMC)): 138 % of control
T/C (dose: 6.7 mg/kg/injection, schedule: Q01DX015 (ip), vehicle: carboxymethylcellulose (CMC)): 133 % of control
T/C (dose: 7.0 mg/kg/injection, schedule: Q01DX009 (ip), vehicle: Klucel (hydroxypropylcellulose) (HPC)): 123, 125, 129, 137 % of control
T/C (dose: 8.0 mg/kg/injection, schedule: Q01DX010 (ip), vehicle: saline): 138, 143, 150, 155 % of control
T/C (dose: 8.0 mg/kg/injection, schedule: Q01DX Z (ip), vehicle: saline): 132 % of control
T/C (dose: 8.0 mg/kg/injection, schedule: Q01DX Z (sc), vehicle: carboxymethylcellulose (CMC)): 146 % of control
T/C (dose: 10.0 mg/kg/injection, schedule: Q01DX010 (ip), vehicle: carboxymethylcellulose (CMC)): 144 % of control
T/C (dose: 10.0 mg/kg/injection, schedule: Q01DX010 (ip), vehicle: other): 131 % of control
T/C (dose: 10.0 mg/kg/injection, schedule: Q01DX015 (ip), vehicle: carboxymethylcellulose (CMC)): 137 % of control
T/C (dose: 10.0 mg/kg/injection, schedule: Q04DX002 (ip), vehicle: Klucel (hydroxypropylcellulose) (HPC)): 100, 103, 105, 106 % of control
T/C (dose: 11.3 mg/kg/injection, schedule: Q02DX010 (ip), vehicle: carboxymethylcellulose (CMC)): 134 % of control
T/C (dose: 11.3 mg/kg/injection, schedule: Q02DX010 (ip), vehicle: other): 142 % of control
T/C (dose: 12.0 mg/kg/injection, schedule: Q03DX Z (ip), vehicle: saline): 131 and 132 % of control
T/C (dose: 12.5 mg/kg/injection, schedule: Q01DX010 (sc), vehicle: olive oil, sesame oil, peanut oil): 128 and 139 % of control
T/C (dose: 13.0 mg/kg/injection, schedule: Q02DX010 (ip), vehicle: carboxymethylcellulose (CMC)): 149, 156, 164, 186, 193, 197 % of control
T/C (dose: 14.0 mg/kg/injection, schedule: Q01DX009 (ip), vehicle: Klucel (hydroxypropylcellulose) (HPC)): 125, 134, 147, 151 % of control
T/C (dose: 16.0 mg/kg/injection, schedule: Q01DX010 (ip), vehicle: other): 133 and 137 % of control
T/C (dose: 16.0 mg/kg/injection, schedule: Q01DX010 (ip), vehicle: saline): 149, 163, 174, 177 % of control
T/C (dose: 17.4 mg/kg/injection, schedule: Q02DX008 (ip), vehicle: carboxymethylcellulose (CMC)): 134 % of control
T/C (dose: 17.4 mg/kg/injection, schedule: Q02DX010 (ip), vehicle: carboxymethylcellulose (CMC)): 146 % of control
T/C (dose: 18.0 mg/kg/injection, schedule: Q02DX010 (ip), vehicle: carboxymethylcellulose (CMC)): 144 % of control
T/C (dose: 19.35 mg/kg/injection, schedule: Q02DX010 (ip), vehicle: carboxymethylcellulose (CMC)): 144, 175, 192, 197, 237 % of control (2×)
T/C (dose: 20.0 mg/kg/injection, schedule: Q02DX010 (ip), vehicle: carboxymethylcellulose (CMC)): 205, 213, 215, 231, 233, 257 % of control
T/C (dose: 20.0 mg/kg/injection, schedule: Q04DX002 (ip), vehicle: Klucel (hydroxypropylcellulose) (HPC)): 107, 110 (2×), 115 % of control
T/C (dose: 24.0 mg/kg/injection, schedule: Q03DX Z (ip), vehicle: saline): 139 % of control
T/C (dose: 25.0 mg/kg/injection, schedule: Q02DX004 (im), vehicle: olive oil, sesame oil, peanut oil): 132 and 142 % of control
T/C (dose: 26.0 mg/kg/injection, schedule: Q02DX008 (ip), vehicle: carboxymethylcellulose (CMC)): 147 % of control
T/C (dose: 28.0 mg/kg/injection, schedule: Q01DX009 (ip), vehicle: Klucel (hydroxypropylcellulose) (HPC)): 166, 188, 205, 214 % of control
T/C (dose: 28.0 mg/kg/injection, schedule: Q07DX Z (ip), vehicle: saline): 131 % of control
T/C (dose: 30.0 mg/kg/injection, schedule: Q01DX Z (ip), vehicle: methylcellulose (MC)): 128 % of control
T/C (dose: 30.0 mg/kg/injection, schedule: Q02DX010 (ip), vehicle: carboxymethylcellulose (CMC)): 221, 255, 257, 268, 277, 295 % of control
T/C (dose: 30.15 mg/kg/injection, schedule: Q02DX010 (ip), vehicle: carboxymethylcellulose (CMC)): 219 (2×), 247, 274, 291, 313 % of control
survivor count (dose: 32.0 mg/kg/injection, schedule: Q01DX010 (ip), vehicle: other): 0 of 8
T/C (dose: 32.0 mg/kg/injection, schedule: Q01DX010 (ip), vehicle: saline): 200, 222, 243, 249 % of control
survivor count (dose: 32.0 mg/kg/injection, schedule: Q#A X Z (ip), vehicle: saline): 6 of 6
T/C (dose: 35.0 mg/kg/injection, schedule: Q## X032 (ip), vehicle: carboxymethylcellulose (CMC)): 133 and 142 % of control
T/C (dose: 35.2 mg/kg/injection, schedule: Q## X032 (ip), vehicle: carboxymethylcellulose (CMC)): 143 % of control
T/C (dose: 40.0 mg/kg/injection, schedule: Q04DX002 (ip), vehicle: Klucel (hydroxypropylcellulose) (HPC)): 111, 116 (2×), 125 % of control
T/C (dose: 42.0 mg/kg/injection, schedule: Q01DX001 (ip), vehicle: carboxymethylcellulose (CMC)): 125 % of control
T/C (dose: 42.0 mg/kg/injection, schedule: Q01DX001 (ip), vehicle: other): 126 % of control
T/C (dose: 44.0 mg/kg/injection, schedule: Q01DX001 (ip), vehicle: carboxymethylcellulose (CMC)): 130 % of control
T/C (dose: 45.0 mg/kg/injection, schedule: Q02DX010 (ip), vehicle: carboxymethylcellulose (CMC)): 153 (2×), 154, 180, 182, 196, 202, 203, 206, 210, 220, 243 % of control
T/C (dose: 45.0 mg/kg/injection, schedule: Q## X004 (ip), vehicle: carboxymethylcellulose (CMC)): 127 and 138 % of control
T/C (dose: 48.0 mg/kg/injection, schedule: Q03DX Z (ip), vehicle: saline): 129 % of control
T/C (dose: 50.0 mg/kg/injection, schedule: Q01DX001 (im), vehicle: steroid suspending solution): 132 % of control

From PubChem BioAssay AID248 (DTP/NCI, 2004)
